# Literature values in patent US7842720B2, “Anticancer and antiprotozoal dihydroartemisinene and dihydroartemisitene dimers with desirable chemical functionalities” (Elsohly Laboratories, Incorporated, priority 2004, dated 2010).
# For at least one compound, name, drawing or mass did not settle the structure.
# System: malaria
# Settings: comparison among artemisinin derivatives
smiles,measurement,value
CO[C@H]1O[C@@H]2O[C@@]3(C)CC[C@H]4[C@H](C)CC[C@@H]([C@H]1C)[C@@]24OO3 [artemether],anti-malarial activity relative to comparator,more active than artemisinin
